What was measured:
[1] = Cold crack temperature of plasticized PVC films (based on draft DIN 53372); settings: PVC film, 60 phr plasticizer
[2] = Compatibility (permanence) test of plasticized PVC films, 70 °C, 100% rel. humidity, gravimetric and visual; set-up: key: 0: trockener Griff, die Folie ist glatt und trocken (beste Verträglichkeit); 1: stumpfer Griff, die Folie ist noch trocken, eine geringe Weichmachermenge befindet sich auf der Oberfläche und ergibt einen stumpfen Griff. Fingerspuren sind sichtbar; 2: klebriger Griff, es ist schon merklich Weichmacher an der Oberfläche ausgetreten, Fingerspuren sind leicht und deutlich zu erkennen; 3: schwacher, trockener Belag; mit bloßem Auge erkennbar; 4: schwacher, flüssiger oder schmieriger Belag; 5: starker trockener Belag; 6: starker schmieriger Belag; settings: 100% rel. Feuchtigkeit
[3] = Film volatility of plasticized PVC films (weight loss, 130 °C, 24 h); settings: 60 phr plasticizer

| Compound | Kältebruchtemperatur [1] | Visuelle Beurteilung ([2]; Nach 1 Tag) | Visuelle Beurteilung ([2]; Nach 3 Tagen) | Visuelle Beurteilung ([2]; Nach 7 Tagen) | Visuelle Beurteilung ([2]; Nach 14 Tagen) | Visuelle Beurteilung ([2]; Nach 28 Tagen) | Folienflüchtigkeit [3] |
| --- | --- | --- | --- | --- | --- | --- | --- |
| 4-Oxoheptandisäure-di-isotridecylester [Verbindung I.6] | -48 °C | 6 | 6 | 6 | 6 | 6 | 0,67% |
| CCCCC(CC)COC(=O)CCC(=O)CCC(=O)OCC(CC)CCCC (stereo not drawn) [4-Oxoheptandisäure-di-(2-ethylhexylester), reference compound] | -45 °C |  | 1 |  |  |  | 2,4% |
| CCCCCC(CCC)COC(=O)CCC(=O)CCC(=O)OCC(CCC)CCCCC (stereo not drawn) [Verbindung I.1, 4-Oxoheptandisäure-di-(2-propylheptylester)] | -43 °C | 2 | 2 | 2 | 2 | 4 | 0,77% |
| CC(C)CCCC(C)CCOC(=O)CCC(=O)CCC(=O)OCCC(C)CCCC(C)C (stereo not drawn) [Verbindung I.2, 4-Oxoheptandisäure-di-(3,7-dimethyloctylester)] | -43 °C | 2 | 4 | 4 | 4 | 6 | 0,93% |
